Measured data: PubChem BioAssay AID602196 (INSERM, 2012)

Assay: 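Knock-downs that protect lung cancer cells from cisplatin or sensitise them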
Cells: human A549 lung cancer cells
Reagent: siRNA pair against human genes
Timing: 48 h transfection before cisplatin; time from cisplatin to read-out not stated
Challenge: cisplatin at a dose killing half of control-siRNA cells; exact dose and duration not given
Read-out: 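Shift in cisplatin death relative to control siRNA, from -50 (all cells die) to +50 (no cells die); siRNAs harmful on their own scored 0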
Reading the numbers: two-siRNA summed score (-2 to +2): higher = both siRNAs protect from cisplatin killing; -2 means both sensitise
Call rule: 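Each siRNA scores 0 if harmful alone by LDH or WST-1, otherwise +1 if it reduces and -1 if it increases cisplatin killing; a gene is active when both siRNAs agree (sum +2 or -2)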
Calls: active = both siRNAs shift cisplatin killing the same way; inactive = no consistent shift, or siRNA harmful alone
Here is a random part of about 23,000 deposited reagents. Of all reagents, 455 (2%) were called active. 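Active includes both protection and sensitisation; some change values fall well beyond the stated -50 to +50 range.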 Further read-outs or replicates are left out here. Reagent sequences are not shown. Not given: the amount of reagent.

| gene knocked down | PubChem SID | two-siRNA summed score (-2 to +2) | Call |
| --- | --- | --- | --- |
| REN (GeneID 5972) | SID131517376 | 0 | inactive |
| HOXB3 (GeneID 3213) | SID131506749 | 0 | inactive |
| SEC61A2 (GeneID 55176) | SID131509897 | 0 | inactive |
| LOC442562 | SID131518455 | 0 | inactive |
| PRSS51 (GeneID 346702) | SID131503595 | 0 | inactive |
| ZNF676 (GeneID 163223) | SID131520244 | 1 | inactive |
| TAS2R4 (GeneID 50832) | SID131501524 | -1 | inactive |
| NDUFAF6 (GeneID 137682) | SID131521334 | 1 | inactive |
| TTLL5 (GeneID 23093) | SID131503646 | 0 | inactive |
| BLVRB (GeneID 645) | SID131512862 | 0 | inactive |
| PRPSAP2 (GeneID 5636) | SID131506934 | 0 | inactive |
| CT45A2 (GeneID 728911) | SID131507698 | 0 | inactive |
| LOC339047 | SID131515609 | 0 | inactive |
| LOC442464 | SID131516490 | 0 | inactive |
| PFKFB1 (GeneID 5207) | SID131513369 | 0 | inactive |
| FKBP6 (GeneID 8468) | SID131520917 | 1 | inactive |
| FZD7 (GeneID 8324) | SID131501580 | -1 | inactive |
| SERPINB1 (GeneID 1992) | SID131509737 | 0 | inactive |
| PAX2 (GeneID 5076) | SID131502542 | -1 | inactive |
| PNPLA4 (GeneID 8228) | SID131513173 | 0 | inactive |
| HAT1 (GeneID 8520) | SID131513806 | 0 | inactive |

Next part; the last 4 above are carried over.
| gene knocked down | PubChem SID | two-siRNA summed score (-2 to +2) | Call |
| --- | --- | --- | --- |
| SERPINB1 (GeneID 1992) | SID131509737 | 0 | inactive |
| PAX2 (GeneID 5076) | SID131502542 | -1 | inactive |
| PNPLA4 (GeneID 8228) | SID131513173 | 0 | inactive |
| HAT1 (GeneID 8520) | SID131513806 | 0 | inactive |
| MTSS2 (GeneID 92154) | SID131518067 | 0 | inactive |
| USP22 (GeneID 23326) | SID131515403 | 0 | inactive |
| TSLIG3B (GeneID 283742) | SID131513536 | 0 | inactive |
| DDX52 (GeneID 11056) | SID131515605 | 0 | inactive |
| LOC440520 | SID131511643 | 0 | inactive |
| RHNO1 (GeneID 83695) | SID131508645 | 0 | inactive |
| LINC00907 (GeneID 284260) | SID131519889 | 1 | inactive |
| ITGB7 (GeneID 3695) | SID131517328 | 0 | inactive |
| ZNF503-AS2 (GeneID 100131213) | SID131522846 | 1 | inactive |
| LMO3 (GeneID 55885) | SID131517587 | 0 | inactive |
| HTATSF1 (GeneID 27336) | SID131507046 | 0 | inactive |
| NDUFA9 (GeneID 4704) | SID131515522 | 0 | inactive |
| LOC391039 | SID131502669 | -1 | inactive |
| LRFN5 (GeneID 145581) | SID131517298 | 0 | inactive |
| COASY (GeneID 80347) | SID131508590 | 0 | inactive |
| BLOC1S1 (GeneID 2647) | SID131504462 | 0 | inactive |
| LOC388142 | SID131520948 | 1 | inactive |
| TEX12 (GeneID 56158) | SID131509830 | 0 | inactive |
| LOC285296 | SID131521876 | 1 | inactive |
| LOC388686 | SID131511017 | 0 | inactive |
| MAGEF1 (GeneID 64110) | SID131516594 | 0 | inactive |
| MED20 (GeneID 9477) | SID131511363 | 0 | inactive |
| TMEM167B (GeneID 56900) | SID131513311 | 0 | inactive |
| RO60 (GeneID 6738) | SID131522961 | 2 | active |
| OR51I2 (GeneID 390064) | SID131522813 | 1 | inactive |
| TBX4 (GeneID 9496) | SID131520408 | 1 | inactive |
| LOC389642 | SID131507581 | 0 | inactive |
| ITIH6 (GeneID 347365) | SID131523030 | 2 | active |
| SEC63 (GeneID 11231) | SID131520430 | 1 | inactive |
| PGGT1B (GeneID 5229) | SID131501092 | -1 | inactive |
| ZNF165 (GeneID 7718) | SID131507053 | 0 | inactive |
| NDUFA6 (GeneID 4700) | SID131509580 | 0 | inactive |
| LOC122867 | SID131521242 | 1 | inactive |
| IL22 (GeneID 50616) | SID131512080 | 0 | inactive |
| RNF113B (GeneID 140432) | SID131517718 | 0 | inactive |
| ZNF212 (GeneID 7988) | SID131518553 | 0 | inactive |
